± gives the standard deviation of the averaged measurements. Whole data set: some 3,800 compounds, median “cell shape (eccentricity) Z-score vs DMSO control” near 1.1, cut for the lowest 2% near -4.7. The list shows a part of the results.
Tested on: human monocyte-derived macrophages (M0)
Test: cell shape (eccentricity) Z-score vs DMSO control; higher = more elongated, M2-like morphology
Conditions: 20 µM; 24 h; macrophage state: M0 (M-CSF)

In order of rising “cell shape (Z-score)” value:
1. Cc1cc(O)c2c(c1)C(=O)C1=C(C2=O)C(O)C(O)C(O)C1O (stereo not drawn)  -13.9
2. O=C(NCCCCN1CCN(c2cccc(Cl)c2Cl)CC1)c1ccc2c(c1)Cc1ccccc1-2  -2.23
3. COc1cc([C@@H]2Oc3c(O)cc([C@H]4Oc5cc(O)cc(O)c5C(=O)[C@@H]4O)cc3[C@H]2CO)ccc1O  -2.03
4. CC1CC[C@@]2(OC1)O[C@H]1CC3C4CC=C5C[C@@H](O[C@@H]6O[C@H](CO)[C@@H](O[C@@H]7O[C@@H](C)[C@H](O)[C@@H](O)[C@H]7O)[C@H](O)[C@H]6O[C@@H]6O[C@@H](C)[C@H](O)[C@@H](O)[C@H]6O)CC[C@]5(C)C4CC[C@]3(C)[C@@]1(O)[C@@H]2C (stereo partly drawn)  -1.93
5. CC1(C)CC[C@]2(C(=O)O[C@@H]3O[C@H](CO)[C@@H](O)[C@H](O)[C@H]3O)CC[C@]3(C)C(=CCC4[C@@]5(C)CC[C@H](O[C@@H]6O[C@H](C(=O)O)[C@@H](O)[C@H](O)[C@H]6O)C(C)(C)C5CC[C@]43C)C2C1 (stereo partly drawn)  -1.7
6. CCOC(=O)c1ccc(N2NC(=O)C(=Cc3ccc([N+](=O)[O-])o3)C2=O)cc1  -1.33
7. COc1cccc(O)c1O  -1.23
8. CC(C)OC(=O)OCOP(=O)(CO[C@H](C)Cn1cnc2c(N)ncnc21)OCOC(=O)OC(C)C  -1.23
9. O=C(COc1ccc(Cl)cc1)N1CCN(Cc2ccc3c(c2)OCO3)CC1  -0.73
10. C[C@H]1CC2C([C@@H](O)C[C@@]3(C)C2CC[C@]3(O)C(=O)CO)[C@@]2(C)C=CC(=O)C=C12 (stereo partly drawn)  -0.69
11. CC(=O)O[C@H]1C[C@@]2(C)[C@@H](CC[C@H]3[C@@]4(C)C=CC(=O)[C@@H](C)[C@@H]4[C@H](OC(C)=O)C(=O)[C@@]32C)/C1=C(\CCC=C(C)C)C(=O)O  -0.662
12. CCCCCCCCCCCC1C(=O)C(=O)CC(=O)C1=O  -0.419
13. CC(=O)O[C@@H]1c2c(ccc3ccc(=O)oc23)OC(C)(C)[C@@H]1OC(=O)CC(C)C  0.0271
14. CC(=O)N1CCCC1C(=O)O (stereo not drawn)  0.131
15. COc1ccc(C(=O)O[C@H]2CC(C)=CC[C@]3(C)[C@@H]2[C@](O)(C(C)C)C[C@@H]3O)cc1  0.148
16. CC(C)CCCC(C)[C@H]1CCC2C3C(=O)C=C4C[C@@H](O)CC[C@]4(C)C3CC[C@@]21C (stereo partly drawn)  0.162
17. O=C1C[C@H](c2ccccc2)Oc2c(Cc3ccccc3O)c(O)cc(O)c21  0.177
18. O=C(C=Cc1c(C(=O)O)[nH]c2cc(Cl)cc(Cl)c12)Nc1ccccc1  0.447
19. CCC1(C)C(=O)C=C2C(=COC(C)=C2C)C1O (stereo not drawn)  0.48 ± 1.3
20. C[C@]12C=CC(=O)C=C1CCC1C2[C@@H](O)C[C@@]2(C)C1CC[C@]2(O)C(=O)CO (stereo partly drawn)  0.502
21. CC(=O)Nc1ccc(OCC(O)CNC(C)C)cc1 (stereo not drawn)  0.523
22. Nc1ncnc2c1ncn2C1CCCO1 (stereo not drawn)  0.526
23. Cc1ccsc1/C=C/C1=NCCCN1C  0.532
24. CC(=O)O[C@H]1[C@H](Oc2ccccc2COC(=O)C2(O)C=CCCC2=O)O[C@H](COC(=O)C2(O)C=CCCC2=O)[C@@H](O)[C@@H]1O (stereo partly drawn)  0.676
25. N#C[C@@H](O[C@@H]1O[C@H](CO)[C@@H](O)[C@H](O)[C@H]1O[C@@H]1O[C@H](CO)[C@@H](O)[C@H](O)[C@H]1O)c1ccccc1  0.85 ± 0.086
26. C=C(C(=O)O)C1CCC2(C)CCC(O)C2(C(C)=O)C1 (stereo not drawn)  1.41
27. C#C[C@]1(OC(C)=O)CCC2C3CCC4=C/C(=N/O)CCC4C3CC[C@@]21CC (stereo partly drawn)  1.53
28. COC(=O)C1=C(C)NC(C)=C(C(=O)OCCSc2ccccc2)C1C (stereo not drawn)  1.68
29. O=c1cc(-c2ccc(O)c(O)c2)oc2c(C3O[C@H](CO)[C@H](O)[C@H](O)[C@H]3O)c(O)cc(O)c12 (stereo partly drawn)  1.83
30. COC(=O)[C@@]1(C)CC[C@]2(C(=O)O[C@@H]3O[C@H](CO)[C@@H](O)[C@H](O)[C@H]3O)CC[C@]3(C)C(=CCC4[C@@]5(C)C[C@H](O)[C@H](O[C@@H]6OC[C@@H](O)[C@H](O)[C@H]6O)[C@@](C)(CO)C5CC[C@]43C)[C@@H]2C1 (stereo partly drawn)  1.93 ± 2.4
31. CC(=O)c1ccc(N2CCOCC2)cc1O  2.03
32. C[C@@H]1CC[C@]2(C(=O)O)CC[C@]3(C(=O)O)C(=CCC4[C@@]5(C)CC[C@H](O[C@@H]6O[C@H](C)[C@H](O)[C@H](O)[C@H]6O)C(C)(C)C5CC[C@]43C)C2[C@H]1C (stereo partly drawn)  2.14
33. CN(Cc1cc(Br)cc(Br)c1N)C1CCCCC1  2.37
34. O=c1c(O[C@@H]2O[C@H](CO)[C@H](O)[C@H](O)[C@H]2O)c(-c2cc(O)c(O)c(O)c2)oc2cc(O)cc(O)c12  2.9
35. Cn1nnc2c(C(N)=O)ncn2c1=O  2.98
36. CC(C)NCC(O)COc1cccc2[nH]ccc12 (stereo not drawn)  3.29
37. Nc1nc(NCC2CCC(CNS(=O)(=O)c3cccc4ccccc34)CC2)nc2ccccc12 (stereo not drawn)  3.52
38. Nc1nc(N)c2nc(-c3ccccc3)c(N)nc2n1  3.68
39. COP(=O)(OC)OC(c1ccc(Cl)cc1)P(=O)(OC)OC (stereo not drawn)  3.91
40. N#CC(Cc1ccc(O)cc1)c1ccc(O)cc1 (stereo not drawn)  4.76
41. CC[C@]1(O)CC2CN(CCc3c([nH]c4ccccc34)[C@@](C(=O)OC)(c3cc4c(cc3OC)N(C)[C@H]3[C@@](O)(C(=O)OC)[C@H](OC(C)=O)[C@]5(CC)C=CCN6CC[C@]43[C@@H]65)C2)C1 (stereo partly drawn)  6.51
42. CC1(C)CCC(CN2CCN(c3ccc(C(=O)NS(=O)(=O)c4ccc(NCC5CCOCC5)c([N+](=O)[O-])c4)c(Oc4cnc5[nH]ccc5c4)c3)CC2)=C(c2ccc(Cl)cc2)C1  6.74
43. O=C(O)c1ccc2c(c1)nc(Nc1cccc(Cl)c1)c1ccncc12  12.4
